Measurements: PMC5286102
These are yes or no findings as the source states them, for the method shown. For part of these data: Binding seen in cells or lysates may run through a third protein. Some entries that bind do so weakly or less than the wild type. For part of these data: Where a sequence is shown, tags or fusion partners need not be part of it. Values belong to the binder of their own block, whether it stands above or below them.

Protein sequences, listed by entry. Tags and fused reporters are not part of them.
UniProt Q96RU7: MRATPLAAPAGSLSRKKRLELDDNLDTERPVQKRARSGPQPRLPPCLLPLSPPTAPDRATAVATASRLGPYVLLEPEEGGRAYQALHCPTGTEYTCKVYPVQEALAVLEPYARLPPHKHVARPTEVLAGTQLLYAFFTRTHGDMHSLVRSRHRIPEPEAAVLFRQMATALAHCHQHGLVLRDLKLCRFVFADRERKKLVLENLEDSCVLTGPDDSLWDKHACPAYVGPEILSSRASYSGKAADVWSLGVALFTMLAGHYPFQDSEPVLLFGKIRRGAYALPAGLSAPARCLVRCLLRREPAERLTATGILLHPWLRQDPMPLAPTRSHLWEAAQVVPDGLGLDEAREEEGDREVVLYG

Experiments:
[1] = biological target: myc-Trib3 (full-length human Trib3 with an N-terminal myc tag) (human) (UniProt Q96RU7); assay: co-IP; HEK293 cells co-transfected with FLAG-SNRK and myc-Trib3 for 48 h, lysed in Triton-X buffer; anti-FLAG or anti-myc on Protein G Sepharose, 1 h at 4 °C; Western blot
[2] = biological target: Trib3-GAL4 (mammalian two hybrid fusion) (UniProt Q96RU7); assay: two-hybrid; mammalian two hybrid (Checkmate, Promega) in HEK293 cells; SNRK-VP16 and Trib3-GAL4 co-transfected with pG5luc; firefly luciferase normalized to renilla
[3] = biological target: T1, Endogenous Trib3 in mouse hearts (mouse (endogenous in mouse heart)) (UniProt Q8K4K2); assay: co-IP; endogenous proteins of mouse heart homogenate; IP buffer 25 mM Tris pH 7.5, 150 mM NaCl, 1 mM EDTA, 5% glycerol, NP40; Trib3 antibody overnight, Protein G Agarose; blot for SNRK
T1 sequence: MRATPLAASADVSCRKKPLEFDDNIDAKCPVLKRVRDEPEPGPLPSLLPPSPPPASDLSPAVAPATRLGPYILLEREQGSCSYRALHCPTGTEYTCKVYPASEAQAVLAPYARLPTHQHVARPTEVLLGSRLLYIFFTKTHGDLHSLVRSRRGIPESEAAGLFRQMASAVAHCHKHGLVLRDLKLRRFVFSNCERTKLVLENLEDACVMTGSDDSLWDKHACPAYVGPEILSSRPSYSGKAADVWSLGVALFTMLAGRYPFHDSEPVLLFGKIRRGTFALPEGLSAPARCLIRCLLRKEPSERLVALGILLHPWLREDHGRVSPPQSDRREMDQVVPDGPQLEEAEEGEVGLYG

binding [1]: binds
B1: FLAG-SNRK (full-length human SNRK with an N-terminal FLAG tag) (enzyme, UniProt Q9NRH2 1-765)
chain: MAGFKRGYDGKIAGLYDLDKTLGRGHFAVVKLARHVFTGEKVAVKVIDKTKLDTLATGHLFQEVRCMKLVQHPNIVRLYEVIDTQTKLYLILELGDGGDMFDYIMKHEEGLNEDLAKKYFAQIVHAISYCHKLHVVHRDLKPENVVFFEKQGLVKLTDFGFSNKFQPGKKLTTSCGSLAYSAPEILLGDEYDAPAVDIWSLGVILFMLVCGQPPFQEANDSETLTMIMDCKYTVPSHVSKECKDLITRMLQRDPKRRASLEEIENHPWLQGVDPSPATKYNIPLVSYKNLSEEEHNSIIQRMVLGDIADRDAIVEALETNRYNHITATYFLLAERILREKQEKEIQTRSASPSNIKAQFRQSWPTKIDVPQDLEDDLTATPLSHATVPQSPARAADSVLNGHRSKGLCDSAKKDDLPELAGPALSTVPPASLKPTASGRKCLFRVEEDEEEDEEDKKPMSLSTQVVLRRKPSVTNRLTSRKSAPVLNQIFEEGESDDEFDMDENLPPKLSRLKMNIASPGTVHKRYHRRKSQGRGSSCSSSETSDDDSESRRRLDKDSGFTYSWHRRDSSEGPPGSEGDGGGQSKPSNASGGVDKASPSENNAGGGSPSSGSGGNPTNTSGTTRRCAGPSNSMQLASRSAGELVESLKLMSLCLGSQLHGSTKYIIDPQNGLSFSSVKVQEKSTWKMCISSTGNAGQVPAVGGIKFFSDHMADTTTELERIKSKNLKNNVLQLPLCEKTISVNIQRNPKEGLLCASSPASCCHVI

binding [2]: binds
B2: SNRK-VP16 (mammalian two hybrid fusion) (enzyme, UniProt Q9NRH2 1-765)
chain: MAGFKRGYDGKIAGLYDLDKTLGRGHFAVVKLARHVFTGEKVAVKVIDKTKLDTLATGHLFQEVRCMKLVQHPNIVRLYEVIDTQTKLYLILELGDGGDMFDYIMKHEEGLNEDLAKKYFAQIVHAISYCHKLHVVHRDLKPENVVFFEKQGLVKLTDFGFSNKFQPGKKLTTSCGSLAYSAPEILLGDEYDAPAVDIWSLGVILFMLVCGQPPFQEANDSETLTMIMDCKYTVPSHVSKECKDLITRMLQRDPKRRASLEEIENHPWLQGVDPSPATKYNIPLVSYKNLSEEEHNSIIQRMVLGDIADRDAIVEALETNRYNHITATYFLLAERILREKQEKEIQTRSASPSNIKAQFRQSWPTKIDVPQDLEDDLTATPLSHATVPQSPARAADSVLNGHRSKGLCDSAKKDDLPELAGPALSTVPPASLKPTASGRKCLFRVEEDEEEDEEDKKPMSLSTQVVLRRKPSVTNRLTSRKSAPVLNQIFEEGESDDEFDMDENLPPKLSRLKMNIASPGTVHKRYHRRKSQGRGSSCSSSETSDDDSESRRRLDKDSGFTYSWHRRDSSEGPPGSEGDGGGQSKPSNASGGVDKASPSENNAGGGSPSSGSGGNPTNTSGTTRRCAGPSNSMQLASRSAGELVESLKLMSLCLGSQLHGSTKYIIDPQNGLSFSSVKVQEKSTWKMCISSTGNAGQVPAVGGIKFFSDHMADTTTELERIKSKNLKNNVLQLPLCEKTISVNIQRNPKEGLLCASSPASCCHVI

binding [3]: binds
B3: Endogenous SNRK in mouse hearts (enzyme, UniProt Q8VDU5 1-748)
chain: MAGFKRGYDGKIAGLYDLDKTLGRGHFAVVKLARHVFTGEKVAVKVIDKTKLDTLATGHLFQEVRCMKLVQHPNIVRLYEVIDTQTKLYLILELGDGGDMFDYIMKHEEGLNEDLAKKYFAQIVHAISYCHKLHVVHRDLKPENVVFFEKQGLVKLTDFGFSNKFQPGKKLTTSCGSLAYSAPEILLGDEYDAPAVDIWSLGVILFMLVCGQPPFQEANDSETLTMIMDCKYTVPPRVSAGCRDLITRMLQRDPKRRASLEEIESHPWLQGVDPSPATKYNIPLVSYKNLSEEEHNSIIQRMVLGDIADRDAIVEALETNRYNHITATYFLLAERILREKQEKEIQTRSASPSNIKAQFRQSWPTKIDVPQDLEDDLTATPLSHATVPQSPARAGDNVLNGHRSKGLCDPAKKDELPELAGPALSTVPPASMKPAASGRKCLFRVEEDEEEDEEDKKPVSLSTQVVLRRKPSVTNRLTSRKSAPVLNQIFEEGESDDEFDMDENLPPKLSRLKMNIASPGTVHKRYHRRKSQGRGSSCSSSETSDDDSESRRRLDKDSGFAYSWHRRDSSEGPPGSEGDGGGQSKPSSGGGVDKASPGEQGTGGGSQGGSGGTPSGTAGSSRRCAGPDSSSPSPASASAAPRGAELVQSLKLVSLCLGSQLHGAKYILDPQKALFSSVKVQEKSTWKMCISAPGPSPSADLDPVRTKKLRNNALQLPLCEKTISVNIQRSRKEGLLCASSPASCCHVI
